# Assay results from the supplement of paper PMC8728848.
# The list shows a part of the results.
# B1: NKp30 (Homo sapiens), O14931 (protein)
# chain: LWVSQPPEIRTLEGSSAFLPCSFNASQGRLAIGSVTWFRDEVVPGKEVRNGTPEFRGRLAPLASSRFLHDHQAELHIRDVRGHDASIYVCRVEVLGLGVGTGNGTRLVVEKEHPQLG
# Columns and labels:
# Test in all cases: glycan array binding signal (z-score within array); higher = stronger binding
# Details in all cases: glycan notation: IUPAC condensed, linker removed
# [1] = target: Gal(b1-4)GlcNAc(b1-6)GalNAc
# Method in brief: (§1)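 The Consortium for Functional Glycomics database supplied 3228 glycan arrays, of which those lacking an available protein sequence were dropped. The binding signal, a within-array Z-score, was averaged across arrays of the same protein sequence and across linkers. Negative scores can be read as non-binding.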
# [2] = target: Gal(b1-4)GlcNAc(b1-6)[Gal(b1-3)]GalNAc
# Method in brief: as §1
# [3] = target: Gal(b1-4)GlcNAc(b1-6)[Gal(b1-3)]GlcNAc
# Method in brief: as §1
# [4] = target: Gal3S(b1-3)GalNAc
# Method in brief: as §1
# [5] = target: Gal3S(b1-3)GlcNAc
# Method in brief: as §1
# [6] = target: Gal3S(b1-3)[Fuc(a1-4)]GlcNAc
# Method in brief: as §1
# [7] = target: Gal3S(b1-4)Glc
# Method in brief: as §1
# [8] = target: Gal3S(b1-4)Glc6S
# Method in brief: as §1
# [9] = target: Gal3S(b1-4)GlcNAc
# Method in brief: as §1
# [10] = target: Gal3S(b1-4)GlcNAc6S
# Method in brief: as §1
# [11] = target: Gal3S6S(b1-4)GlcNAc
# Method in brief: as §1
# [12] = target: Gal3S6S(b1-4)GlcNAc6S
# Method in brief: as §1
# [13] = target: Gal4S(b1-4)GlcNAc
# Method in brief: as §1
# [14] = target: Gal4S6S(b1-4)GlcNAc
# Method in brief: as §1
# [15] = target: Gal6S(b1-4)Glc
# Method in brief: as §1
# [16] = target: Gal6S(b1-4)Glc6S
# Method in brief: as §1
# [17] = target: Gal6S(b1-4)GlcNAc
# Method in brief: as §1
# [18] = target: GalNAc(a1-3)Gal
# Method in brief: as §1
# [19] = target: GalNAc(a1-3)GalNAc
# Method in brief: as §1
# [20] = target: GalNAc(b1-3)Gal(a1-4)Gal(b1-4)GlcNAc
# Method in brief: as §1
# [21] = target: GalNAc(b1-4)GlcNAc
# Method in brief: as §1
# [22] = target: Glc(a1-4)Glc
# Method in brief: as §1
# [23] = target: Glc(a1-6)Glc(a1-6)Glc
# Method in brief: as §1
# [24] = target: Glc(b1-4)Glc
# Method in brief: as §1
# [25] = target: Glc(b1-6)Glc
# Method in brief: as §1
# [26] = target: GlcA(b1-3)Gal
# Method in brief: as §1
# [27] = target: GlcA(b1-6)Gal
# Method in brief: as §1
# [28] = target: GlcNAc(a1-3)Gal(b1-4)GlcNAc
# Method in brief: as §1
# [29] = target: GlcNAc(a1-6)Gal(b1-4)GlcNAc
# Method in brief: as §1
# [30] = target: GlcNAc(b1-2)Gal(b1-3)GlcNAc
# Method in brief: as §1
# [31] = target: GlcNAc(b1-2)Man(a1-3)[GlcNAc(b1-2)Man(a1-6)]Man(b1-4)GlcNAc(b1-4)GlcNAc
# Method in brief: as §1
# [32] = target: GlcNAc(b1-3)Gal
# Method in brief: as §1
# [33] = target: GlcNAc(b1-3)Gal(b1-3)GalNAc
# Method in brief: as §1
# [34] = target: GlcNAc(b1-3)Gal(b1-4)Glc
# Method in brief: as §1
# [35] = target: GlcNAc(b1-3)Gal(b1-4)GlcNAc
# Method in brief: as §1
# [36] = target: GlcNAc(b1-3)Gal(b1-4)GlcNAc(b1-3)Gal(b1-4)GlcNAc
# Method in brief: as §1
# [37] = target: GlcNAc(b1-3)GalNAc
# Method in brief: as §1
# [38] = target: GlcNAc(b1-3)[GlcNAc(b1-4)][GlcNAc(b1-6)]GlcNAc
# Method in brief: as §1
# [39] = target: GlcNAc(b1-3)[GlcNAc(b1-6)]Gal(b1-4)GlcNAc
# Method in brief: as §1
# [40] = target: GlcNAc(b1-3)[GlcNAc(b1-6)]GlcNAc
# Method in brief: as §1
# [41] = target: GlcNAc(b1-4)Gal(b1-4)GlcNAc
# Method in brief: as §1
# [42] = target: GlcNAc(b1-4)GlcNAc(b1-4)GlcNAc
# Method in brief: as §1
# [43] = target: GlcNAc(b1-4)GlcNAc(b1-4)GlcNAc(b1-4)GlcNAc(b1-4)GlcNAc
# Method in brief: as §1
# [44] = target: GlcNAc(b1-4)GlcNAc(b1-4)GlcNAc(b1-4)GlcNAc(b1-4)GlcNAc(b1-4)GlcNAc
# Method in brief: as §1
# [45] = target: GlcNAc(b1-4)[GlcNAc(b1-6)]GalNAc
# Method in brief: as §1
binder,measurement,setting,value
B1,glycan array binding signal (z-score),[1],-0.924
same,glycan array binding signal (z-score),[2],0.262
same,glycan array binding signal (z-score),[3],-0.864
same,glycan array binding signal (z-score),[4],0.973
same,glycan array binding signal (z-score),[5],0.979
same,glycan array binding signal (z-score),[6],0.407
same,glycan array binding signal (z-score),[7],0.281
same,glycan array binding signal (z-score),[8],2.3
same,glycan array binding signal (z-score),[9],1.22
same,glycan array binding signal (z-score),[10],2.56
same,glycan array binding signal (z-score),[11],2.28
same,glycan array binding signal (z-score),[12],2.38
same,glycan array binding signal (z-score),[13],0.597
same,glycan array binding signal (z-score),[14],2.56
same,glycan array binding signal (z-score),[15],0.742
same,glycan array binding signal (z-score),[16],2.44
same,glycan array binding signal (z-score),[17],1.02
same,glycan array binding signal (z-score),[18],-0.637
same,glycan array binding signal (z-score),[19],-0.861
same,glycan array binding signal (z-score),[20],-0.721
same,glycan array binding signal (z-score),[21],-0.638
same,glycan array binding signal (z-score),[22],-0.398
same,glycan array binding signal (z-score),[23],-0.195
same,glycan array binding signal (z-score),[24],-0.431
same,glycan array binding signal (z-score),[25],0.138
same,glycan array binding signal (z-score),[26],0.249
same,glycan array binding signal (z-score),[27],-0.664
same,glycan array binding signal (z-score),[28],-1.04
same,glycan array binding signal (z-score),[29],-0.667
same,glycan array binding signal (z-score),[30],-0.803
same,glycan array binding signal (z-score),[31],-0.919
same,glycan array binding signal (z-score),[32],-0.803
same,glycan array binding signal (z-score),[33],-0.541
same,glycan array binding signal (z-score),[34],-0.679
same,glycan array binding signal (z-score),[35],-0.558
same,glycan array binding signal (z-score),[36],-0.728
same,glycan array binding signal (z-score),[37],0.542
same,glycan array binding signal (z-score),[38],-0.854
same,glycan array binding signal (z-score),[39],-0.572
same,glycan array binding signal (z-score),[40],-0.653
same,glycan array binding signal (z-score),[41],-0.76
same,glycan array binding signal (z-score),[42],1.71
same,glycan array binding signal (z-score),[43],-0.274
same,glycan array binding signal (z-score),[44],-0.128
same,glycan array binding signal (z-score),[45],-0.848

# Reprinted from the results shown for reference:
binder,measurement,setting,value
B1,glycan array binding signal (z-score),[43],-0.274
same,glycan array binding signal (z-score),[44],-0.128
same,glycan array binding signal (z-score),[45],-0.848
